Article PMC8215294
Substitutions are numbered along the chain they refer to. No constants are given. Whether binding was seen depends on the method and setting.

How the values were obtained:
Experiment in all cases: SEC; purified His-tagged TOPs treated 30 min at RT with DTTred, DTTox, GSH or GSSG, purified again and dialysed; XBridge BEH200A SEC column, 50 mM sodium phosphate, 150 mM NaCl, 0.02% NaN3, pH 7.0; both purified
[1] = biological target: TOP2 C^405A (A. thaliana) (UniProt Q949P2)
[2] = biological target: TOP2 C^460A (A. thaliana) (UniProt Q949P2)
[3] = biological target: TOP2 C^523A (A. thaliana) (UniProt Q949P2)
[4] = biological target: TOP2 C^611A (A. thaliana) (UniProt Q949P2)

B1: TOP2 C^405A (enzyme, UniProt Q949P2 1-701)
chain: MASEDTLSSNPLLQNFDFPPFDSVDAHHVRPGIRALLQQLEAELEQLEKAVEPSWPKLVEPLEKIIDRLSVVWGMINHLKAVKDTPELRAAIEEVQPEKVKFQLRLGQSKPIYNAFKAIRESPDWNSLSEARQRLVEAQIKEAVLSGIALEDDKREEFNKIEQELEKLSHKFSENVLDATKKFEKLITDKKEIEGLPPSALGLFAQAAVSKGHETATADTGPWLITLDAPSYLPVMQHAKNRALREEVYRAYLSRASSGDLDNTAIIDQILKLRLEKAKLLGYRNYAEVSMATKMATVEKADELLEKLRSASWDPAVQDIEDLKSFAKNQGAAEADSLTHWDITFWSERLRESKYDINEEELRPYFSLPKVMDALFGLAKTLFGIDVVPADGVAPVWNSDVRFYAVKDSSGNPTAYFYFDPYSRPSEKRDGAWMDEVFSRSRVMAQKGSSVRLPVAQMVCNQTPPVGDKPSLMTFREVETVFHEFGHALQHMLTKEDEGLVAGIRNIEWDAVELPSQFMENWCYHRDTLMSIAKHYQTGETLPENVYKKLLAARTFRAGSLSLRQLKFATVDLELHTKYMPGGAETIYEVDQRVSIKTQVIPPLPEDRFLCSFSHIFAGGYAAGYYSYKWAEVLSADAFSAFEDAGLDDIKAVKETGQRFRNTILALGGGKAPLKVFVEFRGREPSPEPLLRHNGLLAASA
**Q.** Which binding [1] does the source give for B1 here?
**A.** no binding

B2: TOP2 C^460A (enzyme, UniProt Q949P2 1-701)
chain: B1 chain with A405C, C460A
**Q.** For B2, which binding [2] is on record?
**A.** no binding

B3: TOP2 C^523A (enzyme, UniProt Q949P2 1-701)
chain: B1 chain with A405C, C523A
**Q.** For B3, which binding [3] is on record?
**A.** no binding

B4: TOP2 C^611A (enzyme, UniProt Q949P2 1-701)
chain: B1 chain with A405C, C611A
**Q.** For B4, which binding [4] is on record?
**A.** no binding
